Reference: publication PMC9976902, “Interaction of human HelQ with DNA polymerase delta halts DNA synthesis and stimulates DNA single-strand annealing” (Nucleic Acids Research, 2022)
For at least one entry, the source does not settle the construct or the ends of the probe. A negative result means that nothing was seen under these conditions.

Amino acid sequences for entries named in this document (tags omitted). A change or cut given only in a name is not applied to a line headed by its entry.
UniProt Q8TDG4: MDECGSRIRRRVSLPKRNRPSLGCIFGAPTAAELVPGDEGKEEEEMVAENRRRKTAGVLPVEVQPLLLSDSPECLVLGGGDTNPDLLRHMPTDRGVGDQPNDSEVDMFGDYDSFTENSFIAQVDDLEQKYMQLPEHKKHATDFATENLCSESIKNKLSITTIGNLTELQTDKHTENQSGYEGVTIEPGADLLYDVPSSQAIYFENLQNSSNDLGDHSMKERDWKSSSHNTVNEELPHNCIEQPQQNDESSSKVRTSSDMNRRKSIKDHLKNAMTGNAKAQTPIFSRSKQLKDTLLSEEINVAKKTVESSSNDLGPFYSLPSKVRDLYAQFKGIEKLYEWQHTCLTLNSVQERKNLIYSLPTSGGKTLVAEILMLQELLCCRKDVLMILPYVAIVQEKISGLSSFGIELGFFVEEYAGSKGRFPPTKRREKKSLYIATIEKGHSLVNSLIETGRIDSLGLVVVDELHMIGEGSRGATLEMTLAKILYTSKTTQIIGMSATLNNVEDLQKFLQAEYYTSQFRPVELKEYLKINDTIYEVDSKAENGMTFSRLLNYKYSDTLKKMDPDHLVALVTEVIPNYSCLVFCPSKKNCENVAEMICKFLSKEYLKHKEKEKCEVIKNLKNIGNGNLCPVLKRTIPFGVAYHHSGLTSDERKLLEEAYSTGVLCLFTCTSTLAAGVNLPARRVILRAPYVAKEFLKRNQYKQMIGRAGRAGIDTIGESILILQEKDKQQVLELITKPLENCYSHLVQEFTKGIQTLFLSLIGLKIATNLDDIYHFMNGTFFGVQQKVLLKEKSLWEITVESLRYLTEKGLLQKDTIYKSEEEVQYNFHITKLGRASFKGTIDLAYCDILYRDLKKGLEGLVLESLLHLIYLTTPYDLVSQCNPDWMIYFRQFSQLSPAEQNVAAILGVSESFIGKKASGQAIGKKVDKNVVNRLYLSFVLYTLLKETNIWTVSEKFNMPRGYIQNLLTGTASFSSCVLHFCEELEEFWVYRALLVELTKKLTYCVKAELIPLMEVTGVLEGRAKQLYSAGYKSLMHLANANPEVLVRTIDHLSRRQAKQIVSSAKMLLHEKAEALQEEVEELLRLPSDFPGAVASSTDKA

Target: HelQΔWHD (human) (UniProt Q8TDG4)
Experiment: EMSA
Details: 50 mM EDTA, HelQΔWHD 100-400 nM, DNA 15 nM, EMSA: 20 mM Tris-HCl pH 7.5, 7% glycerol, 25 mM DTT, 25 nM DNA (Methods; 15 nM in legend), 37 C 10 min, 5% TBE gel, recombinant protein

Question: Does “GTCGGATCCTCTAGACAGCTCCATGATCACTGGCACTGGTAGAATTCGGC / CAACGTCATAGACGATTACATTGCTACATGGAGCTGTCTAGAGGATCCGA [forked DNA (MW12/MW14)]” bind?
Answer: no binding
